Test results: article PMC11332348
Results are given in words; binding and its absence hold for the method and conditions named. Binding seen in cells or lysates may run through a third protein. Some entries that bind do so weakly or less than the wild type.

Amino acid sequences for entries named in this document (tags omitted).
UniProt Q7Z434: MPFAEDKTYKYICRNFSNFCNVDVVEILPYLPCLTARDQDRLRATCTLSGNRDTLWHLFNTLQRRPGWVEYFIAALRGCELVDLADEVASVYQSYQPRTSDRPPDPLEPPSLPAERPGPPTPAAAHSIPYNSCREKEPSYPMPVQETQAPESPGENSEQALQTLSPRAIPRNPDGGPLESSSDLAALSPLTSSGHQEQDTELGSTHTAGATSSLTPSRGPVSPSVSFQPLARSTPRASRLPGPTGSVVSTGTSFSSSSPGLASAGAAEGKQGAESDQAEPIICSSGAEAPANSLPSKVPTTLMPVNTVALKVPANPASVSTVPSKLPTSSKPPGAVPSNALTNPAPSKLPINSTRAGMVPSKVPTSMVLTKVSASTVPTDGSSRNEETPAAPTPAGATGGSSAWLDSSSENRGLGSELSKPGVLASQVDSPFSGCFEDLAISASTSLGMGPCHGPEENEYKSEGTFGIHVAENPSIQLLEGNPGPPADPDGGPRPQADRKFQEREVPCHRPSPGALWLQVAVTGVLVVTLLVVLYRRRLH

Target: endogenous MAVS (mitochondrial antiviral signaling protein) (human (endogenous in A549)) (UniProt Q7Z434)
Experiment: co-IP; A549 transfected with EV or HA-σ3 for 12 h, then poly(I:C) for 12 h; lysate, protein G, immunoprecipitated with MAVS antibody; Western blot for RIG-I, MDA5, MAVS and HA-σ3

B1: endogenous MDA5 (melanoma differentiation-associated gene 5) (protein, UniProt Q9BYX4 1-1025)
chain: MSNGYSTDENFRYLISCFRARVKMYIQVEPVLDYLTFLPAEVKEQIQRTVATSGNMQAVELLLSTLEKGVWHLGWTREFVEALRRTGSPLAARYMNPELTDLPSPSFENAHDEYLQLLNLLQPTLVDKLLVRDVLDKCMEEELLTIEDRNRIAAAENNGNESGVRELLKRIVQKENWFSAFLNVLRQTGNNELVQELTGSDCSESNAEIENLSQVDGPQVEEQLLSTTVQPNLEKEVWGMENNSSESSFADSSVVSESDTSLAEGSVSCLDESLGHNSNMGSDSGTMGSDSDEENVAARASPEPELQLRPYQMEVAQPALEGKNIIICLPTGSGKTRVAVYIAKDHLDKKKKASEPGKVIVLVNKVLLVEQLFRKEFQPFLKKWYRVIGLSGDTQLKISFPEVVKSCDIIISTAQILENSLLNLENGEDAGVQLSDFSLIIIDECHHTNKEAVYNNIMRHYLMQKLKNNRLKKENKPVIPLPQILGLTASPGVGGATKQAKAEEHILKLCANLDAFTIKTVKENLDQLKNQIQEPCKKFAIADATREDPFKEKLLEIMTRIQTYCQMSPMSDFGTQPYEQWAIQMEKKAAKEGNRKERVCAEHLRKYNEALQINDTIRMIDAYTHLETFYNEEKDKKFAVIEDDSDEGGDDEYCDGDEDEDDLKKPLKLDETDRFLMTLFFENNKMLKRLAENPEYENEKLTKLRNTIMEQYTRTEESARGIIFTKTRQSAYALSQWITENEKFAEVGVKAHHLIGAGHSSEFKPMTQNEQKEVISKFRTGKINLLIATTVAEEGLDIKECNIVIRYGLVTNEIAMVQARGRARADESTYVLVAHSGSGVIEHETVNDFREKMMYKAIHCVQNMKPEEYAHKILELQMQSIMEKKMKTKRNIAKHYKNNPSLITFLCKNCSVLACSGEDIHVIEKMHHVNMTPEFKELYIVRENKALQKKCADYQINGEIICKCGQAWGTMMVHKGLDLPCLKIRNFVVVFKNNSTKKQYKKWVELPITFPNLDYSECCLFSDED
binding: binds
